This note sets out measurements from PMC6155007.

Results are given in words; binding and its absence hold for the method and conditions named. Binding seen in cells or lysates may run through a third protein. Some results given as binding are weak or reduced against the parent protein; the word gives no strength. For some of these results: Tags and fused reporters may be left off the sequences shown.

One test deals with T1, GST-RSF1 C2 (human) (UniProt Q96T23).
T1 sequence: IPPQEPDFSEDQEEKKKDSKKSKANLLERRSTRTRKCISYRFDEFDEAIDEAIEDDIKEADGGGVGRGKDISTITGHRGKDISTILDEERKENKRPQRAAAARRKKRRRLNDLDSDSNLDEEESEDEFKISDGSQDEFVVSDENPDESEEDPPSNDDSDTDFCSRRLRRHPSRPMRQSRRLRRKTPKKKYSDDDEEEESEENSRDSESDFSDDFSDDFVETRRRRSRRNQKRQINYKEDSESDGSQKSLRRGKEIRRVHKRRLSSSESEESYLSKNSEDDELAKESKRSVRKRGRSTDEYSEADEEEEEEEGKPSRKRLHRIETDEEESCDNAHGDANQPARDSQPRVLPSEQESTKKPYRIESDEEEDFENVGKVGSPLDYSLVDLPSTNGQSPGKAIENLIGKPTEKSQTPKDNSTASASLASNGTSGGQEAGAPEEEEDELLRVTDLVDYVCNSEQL
Description: pull-down; recombinant GST-RSF1 proteins incubated with lysates of Flag-HDAC1 expressing asynchronously growing (Asy) or mitotic (M) cells for 2 h at 4 °C; immunoblotting; only the target purified.

The next test concerns the target T2, GST-RSF1 WT (human) (UniProt Q96T23).
T2 sequence: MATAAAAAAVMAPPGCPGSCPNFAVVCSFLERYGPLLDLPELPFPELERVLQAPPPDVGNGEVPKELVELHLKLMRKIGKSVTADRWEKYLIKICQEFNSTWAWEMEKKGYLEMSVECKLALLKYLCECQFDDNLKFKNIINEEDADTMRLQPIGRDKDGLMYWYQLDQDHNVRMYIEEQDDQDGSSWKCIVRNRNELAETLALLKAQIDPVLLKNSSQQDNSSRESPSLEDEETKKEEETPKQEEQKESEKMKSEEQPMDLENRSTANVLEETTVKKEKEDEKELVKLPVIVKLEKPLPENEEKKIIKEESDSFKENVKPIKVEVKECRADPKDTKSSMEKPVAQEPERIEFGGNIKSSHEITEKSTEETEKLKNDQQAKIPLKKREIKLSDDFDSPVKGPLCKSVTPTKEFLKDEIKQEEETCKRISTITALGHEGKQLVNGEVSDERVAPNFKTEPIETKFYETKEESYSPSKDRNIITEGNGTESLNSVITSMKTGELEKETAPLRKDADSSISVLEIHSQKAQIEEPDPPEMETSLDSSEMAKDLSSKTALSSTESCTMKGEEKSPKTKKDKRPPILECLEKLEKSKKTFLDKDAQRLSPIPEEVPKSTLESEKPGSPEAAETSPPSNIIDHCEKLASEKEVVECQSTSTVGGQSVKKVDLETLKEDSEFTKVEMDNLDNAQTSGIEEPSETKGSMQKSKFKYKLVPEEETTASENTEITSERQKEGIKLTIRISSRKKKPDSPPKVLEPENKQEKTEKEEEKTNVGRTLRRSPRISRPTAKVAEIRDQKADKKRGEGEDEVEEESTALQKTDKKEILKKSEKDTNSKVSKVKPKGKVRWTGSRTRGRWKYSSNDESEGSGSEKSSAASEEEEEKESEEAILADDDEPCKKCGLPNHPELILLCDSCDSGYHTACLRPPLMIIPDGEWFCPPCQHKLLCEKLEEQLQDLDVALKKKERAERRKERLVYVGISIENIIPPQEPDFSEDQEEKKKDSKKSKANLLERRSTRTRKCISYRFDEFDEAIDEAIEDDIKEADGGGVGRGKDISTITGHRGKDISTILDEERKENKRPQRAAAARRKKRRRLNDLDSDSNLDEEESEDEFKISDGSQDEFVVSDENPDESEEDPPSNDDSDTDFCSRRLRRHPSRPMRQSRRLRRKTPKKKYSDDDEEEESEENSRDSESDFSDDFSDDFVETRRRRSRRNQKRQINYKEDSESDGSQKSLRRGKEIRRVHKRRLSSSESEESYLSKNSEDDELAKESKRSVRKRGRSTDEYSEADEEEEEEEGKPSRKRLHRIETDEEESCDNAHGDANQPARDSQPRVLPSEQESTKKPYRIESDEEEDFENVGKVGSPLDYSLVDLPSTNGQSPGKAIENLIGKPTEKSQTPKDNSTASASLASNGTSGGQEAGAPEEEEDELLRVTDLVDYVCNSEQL
The description is as above.

Test [1] deals with CENP-A (human (endogenous in HeLa)) (UniProt P49450). Description: co-IP; endogenous CENP-A or POGZ immunoprecipitated from nocodazole arrested RSF1 WT or RSF1 knockout HeLa cells; immunoblotting.
For test [2], the target named is T3, POGZ (human (endogenous in HeLa)) (UniProt Q7Z3K3).
T3 sequence: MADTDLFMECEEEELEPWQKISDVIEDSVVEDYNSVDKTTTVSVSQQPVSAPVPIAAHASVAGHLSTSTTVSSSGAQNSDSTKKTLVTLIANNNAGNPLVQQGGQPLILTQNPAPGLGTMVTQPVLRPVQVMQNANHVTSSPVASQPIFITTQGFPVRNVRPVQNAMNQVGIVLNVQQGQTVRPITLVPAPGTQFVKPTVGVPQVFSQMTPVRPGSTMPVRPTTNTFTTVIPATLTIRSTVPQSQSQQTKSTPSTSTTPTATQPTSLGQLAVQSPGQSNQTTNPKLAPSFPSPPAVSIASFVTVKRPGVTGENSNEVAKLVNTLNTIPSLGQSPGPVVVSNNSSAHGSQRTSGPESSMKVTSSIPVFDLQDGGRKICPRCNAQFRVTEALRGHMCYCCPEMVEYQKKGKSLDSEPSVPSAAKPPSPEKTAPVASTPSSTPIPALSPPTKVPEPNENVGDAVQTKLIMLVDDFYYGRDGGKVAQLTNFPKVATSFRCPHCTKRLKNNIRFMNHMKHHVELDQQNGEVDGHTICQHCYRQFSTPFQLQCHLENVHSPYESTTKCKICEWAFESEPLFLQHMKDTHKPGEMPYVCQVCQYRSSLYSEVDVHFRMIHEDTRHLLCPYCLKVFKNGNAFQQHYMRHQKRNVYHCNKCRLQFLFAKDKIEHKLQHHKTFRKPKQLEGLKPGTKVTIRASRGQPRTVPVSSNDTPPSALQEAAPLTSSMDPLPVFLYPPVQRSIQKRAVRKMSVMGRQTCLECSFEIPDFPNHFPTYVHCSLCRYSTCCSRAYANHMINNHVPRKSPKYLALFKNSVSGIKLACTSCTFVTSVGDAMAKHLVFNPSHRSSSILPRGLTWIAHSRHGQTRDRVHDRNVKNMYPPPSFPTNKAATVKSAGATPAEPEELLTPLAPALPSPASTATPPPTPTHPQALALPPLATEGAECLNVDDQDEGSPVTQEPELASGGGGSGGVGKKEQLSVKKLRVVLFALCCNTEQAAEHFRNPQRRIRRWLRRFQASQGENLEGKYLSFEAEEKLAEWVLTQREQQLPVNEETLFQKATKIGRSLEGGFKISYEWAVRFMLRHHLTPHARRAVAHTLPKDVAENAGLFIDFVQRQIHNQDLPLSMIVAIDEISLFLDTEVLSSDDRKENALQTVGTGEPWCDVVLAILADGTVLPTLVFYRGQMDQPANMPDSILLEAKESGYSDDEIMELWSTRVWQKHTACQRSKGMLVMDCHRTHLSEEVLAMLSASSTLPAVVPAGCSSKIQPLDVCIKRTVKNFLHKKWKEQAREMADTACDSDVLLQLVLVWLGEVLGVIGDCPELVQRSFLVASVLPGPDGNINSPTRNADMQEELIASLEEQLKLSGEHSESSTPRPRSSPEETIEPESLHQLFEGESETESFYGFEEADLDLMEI
The description is as above.

For the substance “Flag-HDAC1 (from UniProt Q13547 1-482) (enzyme)”, the binding result with GST-RSF1 C2 (human) and in the test with GST-RSF1 WT (human) was “binds” each time.
For the substance “HDAC1 (endogenous) (from UniProt Q13547 1-482) (enzyme)”, the binding result in test [1] and in test [2] was “binds” each time.
